Article PMC11937513
Results are given in words; binding and its absence hold for the method and conditions named. Binding seen in cells or lysates may run through a third protein. Some binding calls cover weakened binding; strength is not graded here.

By UniProt entry, the sequences of proteins in these tests, tags left out.
UniProt P38936: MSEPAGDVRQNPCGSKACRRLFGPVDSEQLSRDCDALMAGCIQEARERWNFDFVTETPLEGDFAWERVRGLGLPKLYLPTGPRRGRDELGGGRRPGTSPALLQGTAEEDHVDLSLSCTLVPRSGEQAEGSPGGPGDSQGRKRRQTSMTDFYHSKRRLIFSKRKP
UniProt P06748: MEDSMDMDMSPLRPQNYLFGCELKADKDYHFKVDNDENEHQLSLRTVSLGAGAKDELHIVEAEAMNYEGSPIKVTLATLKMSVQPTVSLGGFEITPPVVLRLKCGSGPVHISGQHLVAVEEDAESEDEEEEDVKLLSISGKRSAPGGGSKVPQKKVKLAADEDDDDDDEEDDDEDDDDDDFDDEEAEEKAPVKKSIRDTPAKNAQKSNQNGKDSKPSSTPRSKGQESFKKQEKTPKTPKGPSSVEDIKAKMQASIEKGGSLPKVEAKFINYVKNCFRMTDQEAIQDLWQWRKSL

Experiments:
[1] = target: p21 CIP1 (human (endogenous in U2OS)) (UniProt P38936); test: co-IP; anti-p21 CIP1 immunoprecipitation from the N fraction of U2OS cells treated with CDDP (5 μM) for 3 days, MG132 added 3 h before harvesting; Western blot
[2] = target: p21 CIP1 (human (endogenous in U2OS)) (UniProt P38936); test: condition: only in cells overexpressing HA βTrCP1 (U2OS::HA βTrCP1, CDDP 5 μM, MG132); co-IP; anti-p21 CIP1 immunoprecipitation from the N fraction of U2OS::HA βTrCP1 cells (overexpressing βTrCP1) treated with CDDP (5 μM) for 3 days, MG132 added 3 h before harvesting; Western blot
[3] = target: nucleophosmin 1 (NPM1) (human (endogenous in U2OS)) (UniProt P06748); test: co-IP; anti-NPM1 immunoprecipitation from the N fraction of U2OS and U2OS::HA βTrCP1 cells, untreated or treated with CDDP (5 μM) for 3 days; Western blot
[4] = target: nucleophosmin 1 (NPM1) (human (endogenous in U2OS)) (UniProt P06748); test: condition: only in cells overexpressing HA βTrCP1 (U2OS::HA βTrCP1, CDDP 5 μM); co-IP; anti-NPM1 immunoprecipitation from the N fraction of U2OS::HA βTrCP1 cells (overexpressing βTrCP1) treated with CDDP (5 μM) for 3 days; Western blot for p21 CIP1

binding [1] | binding [2] | binding [3] | binding [4] | Substance
binds | no binding |  |  | nucleophosmin 1 (NPM1) (from UniProt P06748 1-294)
 |  | binds | no binding | p21 CIP1 (from UniProt P38936 1-164)
